Paper PMC11588656
These are yes or no findings as the source states them, for the method shown. In cells and extracts the contact can be indirect. Some results given as binding are weak or reduced against the parent protein; the word gives no strength.

By UniProt entry, the sequences of proteins in these tests, tags left out.
UniProt Q9NRC8: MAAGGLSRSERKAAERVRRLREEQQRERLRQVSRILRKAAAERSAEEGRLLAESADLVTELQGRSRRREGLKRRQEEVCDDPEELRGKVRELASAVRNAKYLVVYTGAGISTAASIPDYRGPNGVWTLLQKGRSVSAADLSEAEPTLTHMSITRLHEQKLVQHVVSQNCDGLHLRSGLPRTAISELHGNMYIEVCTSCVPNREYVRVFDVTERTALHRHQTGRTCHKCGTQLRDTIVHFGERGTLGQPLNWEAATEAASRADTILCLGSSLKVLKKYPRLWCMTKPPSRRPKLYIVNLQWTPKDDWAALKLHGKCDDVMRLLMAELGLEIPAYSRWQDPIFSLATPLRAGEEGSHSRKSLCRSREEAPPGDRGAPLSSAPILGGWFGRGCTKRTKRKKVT
UniProt Q02650: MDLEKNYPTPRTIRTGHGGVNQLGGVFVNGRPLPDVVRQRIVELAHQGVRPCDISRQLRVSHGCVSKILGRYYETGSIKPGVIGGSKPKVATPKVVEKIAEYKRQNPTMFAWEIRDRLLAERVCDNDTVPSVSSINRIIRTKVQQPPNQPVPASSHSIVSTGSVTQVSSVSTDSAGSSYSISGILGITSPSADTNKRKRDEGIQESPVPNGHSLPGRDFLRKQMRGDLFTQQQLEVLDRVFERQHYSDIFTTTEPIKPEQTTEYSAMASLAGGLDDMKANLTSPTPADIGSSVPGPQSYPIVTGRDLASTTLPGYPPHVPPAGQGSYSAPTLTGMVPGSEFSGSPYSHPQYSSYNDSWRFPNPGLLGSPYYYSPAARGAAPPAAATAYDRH

Tests used:
SIRT7–Flag = SIRT7–Flag (UniProt Q9NRC8); test: co-IP; Flag-specific immunoprecipitation (anti-Flag beads, overnight, 4 °C) from HAFTL cells retrovirally transduced with empty vector or SIRT7–Flag; RIPA lysis, benzonase for 8 h; washes with 500 mM NaCl buffer; Pax5 and SIRT7 immunoblotting
Pax5-FLAG (mouse) = Pax5-FLAG (mouse) (UniProt Q02650); test: co-IP; FLAG-specific immunoprecipitation from HEK293F cells transiently co-expressing SIRT7-HA with empty vector or Pax5-FLAG; FLAG and HA immunoblotting

| binding (SIRT7–Flag) | binding (Pax5-FLAG (mouse)) | Substance |
| --- | --- | --- |
| binds | – | Pax5 (endogenous, HAFTL cells) (from UniProt Q02650 1-391) |
| – | binds | SIRT7-HA (from UniProt Q9NRC8 1-400) (enzyme) |
